Results are given in words; binding and its absence hold for the method and conditions named. Binding seen in cells or lysates may run through a third protein. These calls come from enrichment with a bait or labelling near it, and not all partners need be listed.
Biological target: TRIM25 (as used in the co-IP with MS and in the KEAP1 and Nrf2 experiments of the supplement) (UniProt Q14258)
Test: affinity purification with mass spectrometry; combination of co-IP and MS to find target proteins of TRIM25 (Fig. S4D); cells not given

Chains of the proteins cited; added tags and fusions are not shown.
UniProt Q14258: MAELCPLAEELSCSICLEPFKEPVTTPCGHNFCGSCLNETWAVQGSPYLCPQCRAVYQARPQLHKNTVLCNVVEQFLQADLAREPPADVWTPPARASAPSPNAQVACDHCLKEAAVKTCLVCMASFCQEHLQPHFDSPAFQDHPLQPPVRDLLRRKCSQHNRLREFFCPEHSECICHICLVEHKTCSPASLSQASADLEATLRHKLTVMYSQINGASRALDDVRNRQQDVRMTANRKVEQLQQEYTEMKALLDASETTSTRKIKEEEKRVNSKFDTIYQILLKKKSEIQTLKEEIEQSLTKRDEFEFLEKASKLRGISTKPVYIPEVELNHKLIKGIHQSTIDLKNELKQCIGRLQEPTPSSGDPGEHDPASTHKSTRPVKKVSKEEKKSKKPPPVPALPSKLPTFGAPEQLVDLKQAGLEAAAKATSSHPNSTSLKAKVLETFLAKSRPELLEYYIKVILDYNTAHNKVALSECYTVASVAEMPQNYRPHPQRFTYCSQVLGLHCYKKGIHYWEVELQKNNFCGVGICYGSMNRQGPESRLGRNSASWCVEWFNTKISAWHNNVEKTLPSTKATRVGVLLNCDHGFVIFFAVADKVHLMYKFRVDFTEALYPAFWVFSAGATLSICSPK
UniProt Q14145: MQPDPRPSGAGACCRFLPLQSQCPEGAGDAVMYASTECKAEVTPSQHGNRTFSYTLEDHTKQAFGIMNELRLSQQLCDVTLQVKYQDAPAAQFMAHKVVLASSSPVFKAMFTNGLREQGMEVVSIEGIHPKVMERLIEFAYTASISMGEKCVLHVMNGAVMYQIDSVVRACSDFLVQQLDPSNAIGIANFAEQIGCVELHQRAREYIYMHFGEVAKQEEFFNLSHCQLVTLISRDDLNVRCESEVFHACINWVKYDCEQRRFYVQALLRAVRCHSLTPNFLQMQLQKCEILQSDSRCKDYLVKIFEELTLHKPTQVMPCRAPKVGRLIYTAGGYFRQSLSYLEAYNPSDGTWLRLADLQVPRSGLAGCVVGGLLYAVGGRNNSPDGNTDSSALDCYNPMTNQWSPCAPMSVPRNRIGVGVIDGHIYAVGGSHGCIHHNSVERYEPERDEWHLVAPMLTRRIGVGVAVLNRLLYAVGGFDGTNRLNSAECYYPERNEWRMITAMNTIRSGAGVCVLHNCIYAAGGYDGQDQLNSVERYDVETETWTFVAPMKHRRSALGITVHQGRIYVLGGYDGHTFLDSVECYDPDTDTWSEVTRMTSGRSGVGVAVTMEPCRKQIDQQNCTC

- binding: binds
Substance: Kelch-like ECH-associated protein 1 (KEAP1) (from UniProt Q14145 1-624)

Source: publication PMC11575163
